Assay results from paper PMC10127607.
Results are given in words; binding and its absence hold for the method and conditions named. In cells and extracts the contact can be indirect. Some entries that bind do so weakly or less than the wild type.

The chains behind the UniProt entries cited, without tags or fusion partners.
UniProt O60942: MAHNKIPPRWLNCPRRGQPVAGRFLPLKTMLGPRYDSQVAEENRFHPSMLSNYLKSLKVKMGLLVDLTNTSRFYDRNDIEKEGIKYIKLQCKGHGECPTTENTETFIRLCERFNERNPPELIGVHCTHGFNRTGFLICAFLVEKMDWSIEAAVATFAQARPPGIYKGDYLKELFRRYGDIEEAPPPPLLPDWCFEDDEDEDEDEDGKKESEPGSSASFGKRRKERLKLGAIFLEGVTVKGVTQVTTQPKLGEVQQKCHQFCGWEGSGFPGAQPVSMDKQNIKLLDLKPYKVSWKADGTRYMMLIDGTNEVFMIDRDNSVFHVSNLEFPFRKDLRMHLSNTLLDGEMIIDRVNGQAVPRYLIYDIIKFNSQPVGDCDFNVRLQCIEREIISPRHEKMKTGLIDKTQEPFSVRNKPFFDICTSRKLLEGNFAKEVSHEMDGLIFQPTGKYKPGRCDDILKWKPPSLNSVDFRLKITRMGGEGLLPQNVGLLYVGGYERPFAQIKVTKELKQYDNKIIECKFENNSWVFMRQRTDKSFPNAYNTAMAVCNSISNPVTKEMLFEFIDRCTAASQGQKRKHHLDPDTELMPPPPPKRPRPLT

Biological target: T1, DRAP1 (DR1-associated corepressor), endogenous (human (endogenous in THP-1)) (UniProt Q14919)
T1 sequence: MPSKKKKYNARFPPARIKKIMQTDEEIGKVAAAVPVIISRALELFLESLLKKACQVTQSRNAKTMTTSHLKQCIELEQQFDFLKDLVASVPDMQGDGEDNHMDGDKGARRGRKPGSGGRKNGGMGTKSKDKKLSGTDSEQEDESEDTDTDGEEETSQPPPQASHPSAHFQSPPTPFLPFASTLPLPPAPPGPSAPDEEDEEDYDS
Test: co-IP; MCE1-HA-expressing THP-1 macrophages, mock-infected or infected with HIV-1 (SERINC5+/−), also with RPL35 and DRAP1 overexpressed or knocked out; IP with RPL35 or DRAP1 antibodies or of MCE1-HA, Western blot

## C-terminally HA-tagged MCE1 (mammalian capping enzyme) (from UniProt O60942 1-597)
  binding: binds
